# Assay results published in PMC10415146.
# Results are given in words; binding and its absence hold for the method and conditions named. Some entries that bind do so weakly or less than the wild type.
# T1: Cas2 (Escherichia coli) (UniProt P45956)
# T1 sequence: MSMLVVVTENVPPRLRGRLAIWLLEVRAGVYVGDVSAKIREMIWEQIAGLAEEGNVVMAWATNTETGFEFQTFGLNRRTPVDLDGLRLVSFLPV
# Molecular target: T1, Cas2 (Escherichia coli)
# Assay: co-purification of a co-expressed complex; Cas1 variant and Cas2-His co-expressed from pETDuet in E. coli BL21-DE3 (0.5 mM IPTG, 25°C, 22 h); the complex purified as described in ref. 30
row,binding,Binder
1,binds,"wild-type Cas1 (enzyme, UniProt Q46896 1-305) MTWLPLNPIPLKDRVSMIFLQYGQIDVIDGAFVLIDKTGIRTHIPVGSVACIMLEPGTRVSHAAVRLAAQVGTLLVWVGEAGVRVYASGQPGGARSDKLLYQAKLALDEDLRLKVVRKMFELRFGEPAPARRSVEQLRGIEGSRVRATYALLAKQYGVTWNGRRYDPKDWEKGDTINQCISAATSCLYGVTEAAILAAGYAPAIGFVHTGKPLSFVYDIADIIKFDTVVPKAFEIARRNPGEPDREVRLACRDIFRSSKTLAKLIPLIEDVLAAGEIQPPAPPEDAQPVAIPLPVSLGDAGHRSS"
2,binds,"dead Cas1 (Cas1^D221A) (enzyme, UniProt Q46896 1-305) MTWLPLNPIPLKDRVSMIFLQYGQIDVIDGAFVLIDKTGIRTHIPVGSVACIMLEPGTRVSHAAVRLAAQVGTLLVWVGEAGVRVYASGQPGGARSDKLLYQAKLALDEDLRLKVVRKMFELRFGEPAPARRSVEQLRGIEGSRVRATYALLAKQYGVTWNGRRYDPKDWEKGDTINQCISAATSCLYGVTEAAILAAGYAPAIGFVHTGKPLSFVYDIAAIIKFDTVVPKAFEIARRNPGEPDREVRLACRDIFRSSKTLAKLIPLIEDVLAAGEIQPPAPPEDAQPVAIPLPVSLGDAGHRSS"
3,binds,"Cas1-V76L (enzyme, UniProt Q46896 1-305) MTWLPLNPIPLKDRVSMIFLQYGQIDVIDGAFVLIDKTGIRTHIPVGSVACIMLEPGTRVSHAAVRLAAQVGTLLLWVGEAGVRVYASGQPGGARSDKLLYQAKLALDEDLRLKVVRKMFELRFGEPAPARRSVEQLRGIEGSRVRATYALLAKQYGVTWNGRRYDPKDWEKGDTINQCISAATSCLYGVTEAAILAAGYAPAIGFVHTGKPLSFVYDIADIIKFDTVVPKAFEIARRNPGEPDREVRLACRDIFRSSKTLAKLIPLIEDVLAAGEIQPPAPPEDAQPVAIPLPVSLGDAGHRSS"
4,binds,"Cas1-E269G (enzyme, UniProt Q46896 1-305) MTWLPLNPIPLKDRVSMIFLQYGQIDVIDGAFVLIDKTGIRTHIPVGSVACIMLEPGTRVSHAAVRLAAQVGTLLVWVGEAGVRVYASGQPGGARSDKLLYQAKLALDEDLRLKVVRKMFELRFGEPAPARRSVEQLRGIEGSRVRATYALLAKQYGVTWNGRRYDPKDWEKGDTINQCISAATSCLYGVTEAAILAAGYAPAIGFVHTGKPLSFVYDIADIIKFDTVVPKAFEIARRNPGEPDREVRLACRDIFRSSKTLAKLIPLIGDVLAAGEIQPPAPPEDAQPVAIPLPVSLGDAGHRSS"
5,binds,"Cas1-S1,S2 (Cas1 with E269G and V76L) (enzyme, UniProt Q46896 1-305) MTWLPLNPIPLKDRVSMIFLQYGQIDVIDGAFVLIDKTGIRTHIPVGSVACIMLEPGTRVSHAAVRLAAQVGTLLLWVGEAGVRVYASGQPGGARSDKLLYQAKLALDEDLRLKVVRKMFELRFGEPAPARRSVEQLRGIEGSRVRATYALLAKQYGVTWNGRRYDPKDWEKGDTINQCISAATSCLYGVTEAAILAAGYAPAIGFVHTGKPLSFVYDIADIIKFDTVVPKAFEIARRNPGEPDREVRLACRDIFRSSKTLAKLIPLIGDVLAAGEIQPPAPPEDAQPVAIPLPVSLGDAGHRSS"
